Reference: the supplement of paper PMC7752906
Where a name gives a salt, the structure may show the parent alone. The list shows a part of the results. Single values are uncertain here, since repeats match poorly.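 Test system: Schistosoma mansoni schistosomula, roughly 40 per well, imaged in bright field over time and compared with wells given 0.1% DMSO. Distance read-out: the paper calls a drug a hit when its Mahalanobis distance is at least 2.47, three standard deviations above the DMSO control mean. Degeneracy is the share of worms classified opaque.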

system: Schistosoma mansoni schistosomula; assay: Mahalanobis distance of static-rate-frequency phenotype descriptors from DMSO controls (dimensionless); higher = stronger phenotypic change versus DMSO; conditions: 10 µM; 72 h

Mahalanobis distance, active:
Nc1ncnc2c1ncn2[C@@H]1O[C@H](COP(=O)(O)O)[C@@H](O)[C@H]1O [Adenosine Phosphate] 3.21
CCC(=O)O[C@H]1[C@H](O[C@@H]2[C@@H](C)[C@H](O[C@H]3C[C@@](C)(OC)[C@@H](O)[C@H](C)O3)[C@@H](C)C(=O)O[C@H](CC)[C@@](C)(O)[C@H](O)[C@@H](C)C(=O)[C@H](C)C[C@@]2(C)O)O[C@H](C)C[C@@H]1N(C)C [Erythromycin Propionate] 4.08
C[C@H]1C[C@H]2[C@@H]3CCC4=CC(=O)C=C[C@]4(C)[C@@]3(Cl)[C@@H](O)C[C@]2(C)[C@@]1(O)C(=O)CO [Beclomethasone] 4.46
CN(C)CCCOc1nn(Cc2ccccc2)c2ccccc12 [Benzydamine Hydrochloride] 3.91
O=C(N/N=C/c1ccc([N+](=O)[O-])o1)c1ccc(O)cc1 [nifuroxazide] 2.63
Cc1ccc(/C(=C\CN2CCCC2)c2ccccn2)cc1 [Triprolidine Hydrochloride] 3.39
CCCCCCCCCCCCCCCC[N+](C)(C)CCN(Cc1ccc(OC)cc1)c1ncccn1 [Thonzonium Bromide] 2.9
CO[C@H]1C[C@@H]2CC[C@@H](C)[C@@](O)(O2)C(=O)C(=O)N2CCCC[C@H]2C(=O)O[C@H]([C@H](C)C[C@@H]2CC[C@@H](O)[C@H](OC)C2)CC(=O)[C@H](C)/C=C(\C)[C@@H](O)[C@@H](OC)C(=O)[C@H](C)C[C@H](C)/C=C/C=C/C=C/1C [Rapamycin] 3.64

Compounds shown so far with nitrogen in an aromatic ring:
Mahalanobis distance, active:
Nc1ncnc2c1ncn2[C@@H]1O[C@H](COP(=O)(O)O)[C@@H](O)[C@H]1O [Adenosine Phosphate] 3.21
CN(C)CCCOc1nn(Cc2ccccc2)c2ccccc12 [Benzydamine Hydrochloride] 3.91
Cc1ccc(/C(=C\CN2CCCC2)c2ccccn2)cc1 [Triprolidine Hydrochloride] 3.39
CCCCCCCCCCCCCCCC[N+](C)(C)CCN(Cc1ccc(OC)cc1)c1ncccn1 [Thonzonium Bromide] 2.9

Next part.

Mahalanobis distance, inactive:
CC(=O)Oc1cc(C(C)C)c(OCCN(C)C)cc1C [Moxisylyte Hydrochoride] 1.55
O=C(O)c1cc(O)c2c(c1)[C@H]([C@H]1c3cc(C(=O)O)cc(O)c3C(=O)c3c(O[C@@H]4O[C@H](CO)[C@@H](O)[C@H](O)[C@H]4O)cccc31)c1cccc(O[C@@H]3O[C@H](CO)[C@@H](O)[C@H](O)[C@H]3O)c1C2=O [Sennoside A] 1.35
CC1=C(/C=C/C(C)=C/C=C/C(C)=C/C(=O)Nc2ccc(O)cc2)C(C)(C)CCC1 [Fenretinide] 2.18
O=c1[nH]c(=O)n([C@H]2C[C@H](O)[C@@H](CO)O2)cc1F [Floxuridine] 1.92
CN(C)CCc1c[nH]c2ccc(C[C@H]3COC(=O)N3)cc12 [Zolmitriptan] 1.33
CN(C)CCC=C1c2ccccc2C=Cc2ccccc21 [Cyclobenzaprine] 2.09
Nc1ccc(S(=O)(=O)Nc2ccc(Cl)nn2)cc1 [Sulfachlorpyridazine] 1.87
Cc1cc2nc3ccc(N(C)C)cc3[s+]c2cc1N [Tolonium Chloride] 2.22
CC1CCC(NC(=O)N(CCCl)N=O)CC1 (stereo not given) [Semustine] 2.1
COc1cc2nc(N3CCN(C(=O)C4CCCO4)CC3)nc(N)c2cc1OC (stereo not given) [Terazosin] 2.4
COc1cc(C(=O)N2CCOCC2)cc(OC)c1OC [Trimetozine] 2.47
S=C=Nc1ccc(N=C=S)cc1 [Bitoscanate] 2.16
OC[C@@H](O)[C@@H](O)[C@H](O)[C@@H](O)CO [Sorbitol] 1.49
CN1CCN(C(c2ccccc2)c2ccc(Cl)cc2)CC1 (stereo not given) [Chlorcyclizine Hydrochloride] 1.79
CC(=O)Nc1c(I)c(NC(C)=O)c(I)c(C(=O)O)c1I [Diatrizoic Acid] 1.31
C[C@H]1[C@H](NC(=O)/C(=N\OC(C)(C)C(=O)O)c2csc(N)n2)C(=O)N1S(=O)(=O)O [Aztreonam] 1.33
CNCCC=C1c2ccccc2CCc2ccccc21 [Nortriptyline] 2.03
C=C1/C(=C\C=C2/CCC[C@]3(C)[C@@H]([C@H](C)CCCC(C)(C)O)CC[C@@H]23)C[C@@H](O)C[C@@H]1O [Calcitriol] 2.43
CC(C)(O/N=C(\C(=O)N[C@@H]1C(=O)N2C(C(=O)[O-])=C(C[n+]3ccccc3)CS[C@H]12)c1csc(N)n1)C(=O)O [Ceftazidime] 1.34
C[C@]12C=CC(=O)C=C1CC[C@@H]1[C@@H]2C(=O)C[C@@]2(C)[C@H]1CC[C@]2(O)C(=O)CO [Prednisone] 2.36
CCC1=C[C@@H]2CN(C1)Cc1c([nH]c3ccccc13)[C@@](C(=O)OC)(c1cc3c(cc1OC)N(C)[C@H]1[C@@](O)(C(=O)OC)[C@H](OC(C)=O)[C@]4(CC)C=CCN5CC[C@]31[C@@H]54)C2 [Vinorelbine] 1.69
OCc1ccccc1 [Benzyl Alcohol] 1.64
CNC(=C[N+](=O)[O-])NCCSCc1csc(CN(C)C)n1 [Nizatidine] 1.38
CS(=O)(=O)Nc1ccc([N+](=O)[O-])cc1Oc1ccccc1 [Nimesulide] 2.3
Cc1ccc(S(=O)(=O)NCl)cc1 [Chloramine-t] 1.54
O=C(O)P(=O)(O)O [Foscarnet Sodium] 2.19
C#C[C@]1(O)CC[C@H]2[C@@H]3CCc4cc(OC)ccc4[C@H]3CC[C@@]21C [Mestranol] 1.99
CCOc1ccccc1C(N)=O [Ethenzamide] 1.6
CO[C@H]1C[C@@H]2CC[C@@H](C)[C@@](O)(O2)C(=O)C(=O)N2CCCC[C@H]2C(=O)O[C@H]([C@H](C)C[C@@H]2CC[C@@H](O)[C@H](OC)C2)CC(=O)[C@H](C)/C=C(\C)[C@@H](O)[C@@H](OC)C(=O)[C@H](C)C[C@H](C)/C=C/C=C/C=C/1C [Sirolimus] 1.45
NS(=O)(=O)c1ccc(C(=O)O)cc1 [Carzenide] 1.78
CC(C)(CO)[C@@H](O)C(=O)NCCCO [Dexpanthenol] 2.44
CN1C(=O)CC(C)(c2ccccc2)C1=O (stereo not given) [Methsuximide] 1.65
